Tested on: isoproterenol-induced cardiac hypertrophy
Experiment: Isoproterenol-induced cardiac hypertrophy and fibrosis in mice (Example 8)
Type: in vivo, C57BL/6J male mice
Conditions: 15 mg/kg/day by minipump
Description: A total of 6 study groups with n=8 mice (C57BL/6J male mice) per group were performed. The groups were: vehicle, Fc_hRLX2_15-15AA, isoproterenol, isoproterenol+enalapril, isoproterenol+recombinant human relaxin 2, and isoproterenol+Fc_hRLX2_15-15AA. Drugs and vehicle were delivered by Alzet minipumps (model 1002; rate: 0.25 μl/hr (±0.05), 6 μl one day @37° C.) or subcutaneous injection for Fc_hRLX2_15-15AA.
Isoproterenol was made as follows: A 500 mM solution (123.9 mg/ml) freshly in 0.0002% Na-Asc saline, […] filtered). The final [Iso] concentration in minipump: 15 mg/kg/day=15 mg/247.72/6 μl/1000 g=10.1 mM per gram of body weight (BVV). Vehicle was 0.0002% Na-ascorbate, Sigma catalog #A7631.
Enalapril was made as follows: Enalapril is used as maleate salt, MW of 492.52, Sigma catalog #E6888. A 200 mM stock solution (98.5 mg/ml) freshly in methanol, […] filtered. The final concentration in minipump: 2.5 mg/kg/day=2.5 mg/492.52/6 μl/1000 g=0.846 mM per gram of body weight (BVV), i.e., one minipump for 30 gram of mouse will need 19.0 μl of 200 mM Ena (150 μl×0.846/200 mM×30 g BW). […]
At the end of the study, body weight, heart weight, lung weight, and tibia length were measured. […]
Fibrosis was measured based on the detection of hydroxyproline (Total collagen assay, QuickZyme Biosciences). […]

## CC(C)NCC(O)c1ccc(O)c(O)c1 (centres unmarked) [isoproterenol]
  cardiac hypertrophy (HW/TL) compared to vehicle or Fc_hRLX2_15-15AA alone: significant increase
  fibrosis (collagen content) compared to vehicle or Fc_hRLX2_15-15AA alone: significant increase
